{"source": "paper doi:10.1101/2024.09.30.615907", "binders": {"B1": {"name": "Plasmodium falciparum Niemann-Pick Type C1-Related protein (PfNCR1) (protein, UniProt Q8I266 1-1470)", "chain": "MFVKNFIHKLKELKQKSLDKFANLLYDYGGYVYDRPCTFIICSLICCLLLTCGFYFKEHEKDIYKLYSISNSYAYETNETINDFFYKSRRCFILVESNVNLLKPKILRELQKFEEGTKDIEVDLSEINECKTNSELPPEQSHVAKELYKTLIQRSEENLKSGKINGSLFDYSDLDENGKSVLSLAGKENNDDTLIEGDNKNDEETSANNNNNEDDNNEDDNNEDDNNEDDNNENDNNNNNEDDNNNDDDDDEDNEEEDEEKQKSLREKLYRKIYEMLKKKKENIVLDENNPNVNFTDYKDDVFYPYQYIPPMLIKADRCKLQNVFGDKNLNIDLREASDGLKKQITYTLEDICEKKYGDCNFSSLFLYYEKGNGYIDYPIKVDNLDFYVNRRTYKEMMFKGILGNMVYEKSGSKYIIKSANAIMTVIPLLNSHTYEPYALAYEKKLIDYVRFYNLDDIIQDEETNDDNDPFIRFHVFTDRSLEDEVDRISKIDNLTRLLLLIGVLLIFMYALFNNVTSVLYRSKPLCAVMGIFCGFLGFLSGSGFLYFLGVKSVPPAETVPFLVIGVGVDDVFVILNSYSLLFMVKDNKKRIQMCLKDSALAITVTTLTNIIAFLISAISPFYSICAFSLFTASSLFFGYLMVLTFLLSFLCIEAKLEKKKRNIFTGTFHLFRSIFMKSSKKNKKENKENNIHDDGDNDNDEKKKDLSLEVKNNEDDYENISIYEWIHNLYLFEESINKKKKNAALVYASNNGMSSNLNNVNEDGFPNPSKIVSMEDVKKRNIKKDDAYINKEDEEGGGYYNKDDNKKKDILGKKQKKNNNNVTLVSKKGEDNELDVYYENLDEKTNDKYKMNNIKSSKLKYDNDKKDGAIINNRPSSDEEYKEEKDKNKINILNDVFNDITIKPNENILLDRGDVIKSSGYDSSYNDLQSSSLPNPSSNEVLNKTTMVYNETDLKDNKKEIKSSKKNVKDIKKSDMIHDDTYDIINSNNKNILLSSNEINNNSNNTNKFNNNSTELATKDTQQFINGHDKNIYLLSSHDNALFYKYIYEEPKGNIGKYFRSLVKNYYVPFLSSRFGKTIVYIMFTIIIAMSIYGCTLMKKGIKYDKAFPVDSYVRRFTTAKIKYFPDFGDFIEVYYFDKHFINKYRGLEKNTKEAASSFLYSDLTDRQIMNSPKINKNVHWENTNLQEELINMHNTLESQEFVTSVANGFTFFLNKNKSSLRKENPQEFYEIFANWLKKDFVGNLFKNDFVFLNGKLVAWRFHYFQKNVDDSEISSKWLKACKQITKLENHNVQMVCFHLSSIFNETDESIIEVTLINLGITILTILVVTAYIIKGFYSCVIIALIIFLIDLCIFGFMCLCGITMNIISMVILVLSVGFSIDHTSHIVQAFSHSMGRTRDEKMKESLHLMIGPVLHSGLSTWFVISTLFFSNKDFTVIFFQTLSLVLFFSITFSSMFLPVLLSSFGPLH", "modifications": "N-linked N-acetylglucosamine (NAG) at N165 and N294"}}, "molecular_target": "Plasmodium falciparum Niemann-Pick Type C1-Related protein (PfNCR1) (Plasmodium falciparum) (UniProt Q8I266)", "assay": "cryo-EM structure", "note": "No constants are given. Whether binding was seen depends on the method and setting."}
{"binder": "B1", "values": [{"measurement": "binding", "result": "no binding (tested: 7 mg/ml)"}]}
